According to article PMC8211825:
Results are given in words; binding and its absence hold for the method and conditions named. Some binding calls cover weakened binding; strength is not graded here.

The chains behind the UniProt entries cited, without tags or fusion partners. Where a name states a change or a piece, a line headed by the entry shows the natural chain unless it says otherwise. A line that says so, or that is headed by a name, gives the form on record, which may keep a tag or linker. Residues count along the entry.
C1q-like domain of otolin-1 from human (A6NHN0, residues 338-473): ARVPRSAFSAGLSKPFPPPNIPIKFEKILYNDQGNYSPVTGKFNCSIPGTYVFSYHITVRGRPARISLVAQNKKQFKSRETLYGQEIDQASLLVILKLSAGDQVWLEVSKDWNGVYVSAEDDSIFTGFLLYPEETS
hOtolC1q D425A (A6NHN0, form named): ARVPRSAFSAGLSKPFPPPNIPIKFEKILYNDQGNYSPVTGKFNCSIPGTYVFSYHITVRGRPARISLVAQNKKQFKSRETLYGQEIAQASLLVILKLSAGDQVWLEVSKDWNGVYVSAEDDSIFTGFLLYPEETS
hOtolC1q E417A (A6NHN0, form named): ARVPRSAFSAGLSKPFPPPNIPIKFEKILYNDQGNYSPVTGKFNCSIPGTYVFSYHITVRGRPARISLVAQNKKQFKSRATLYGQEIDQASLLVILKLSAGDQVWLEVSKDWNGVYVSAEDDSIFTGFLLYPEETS
hOtolC1q E417A D425A (A6NHN0, form named): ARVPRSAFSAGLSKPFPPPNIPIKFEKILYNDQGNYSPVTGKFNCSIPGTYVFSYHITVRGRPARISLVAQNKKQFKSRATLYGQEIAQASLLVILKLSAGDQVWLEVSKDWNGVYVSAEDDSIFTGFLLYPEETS
hOtolC1q E470A (A6NHN0, form named): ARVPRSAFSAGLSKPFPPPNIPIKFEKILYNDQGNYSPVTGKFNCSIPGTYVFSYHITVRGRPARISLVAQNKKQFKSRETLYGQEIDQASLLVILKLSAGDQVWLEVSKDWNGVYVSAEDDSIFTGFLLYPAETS
C1q-like domain of otolin-1 from zebrafish (A5PN28, residues 351-488): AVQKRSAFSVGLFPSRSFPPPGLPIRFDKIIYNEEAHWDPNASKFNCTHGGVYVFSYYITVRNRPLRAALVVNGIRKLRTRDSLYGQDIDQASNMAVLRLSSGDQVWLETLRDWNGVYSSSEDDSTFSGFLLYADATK
dOtolC1q D432A (A5PN28, form named): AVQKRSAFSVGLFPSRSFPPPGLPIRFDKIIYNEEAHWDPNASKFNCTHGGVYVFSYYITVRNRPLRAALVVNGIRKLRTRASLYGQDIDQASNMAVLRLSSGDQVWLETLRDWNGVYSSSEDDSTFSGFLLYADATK

Assays:
[1] = target: C1q-like domain of otolin-1 from human (human) (UniProt A6NHN0); assay: AUC; sedimentation velocity, c(s) analysis in SEDFIT; 1 mM EDTA (no Ca2+); 10 mM HEPES pH 7.0, 500 mM NaCl, 5% glycerol; 20 °C, 50,000 rpm; protein about 0.1, 0.25 and 0.5 mg/ml; self-association of the gC1q domain into trimers; both purified
[2] = target: C1q-like domain of otolin-1 from zebrafish (zebrafish (Danio rerio)) (UniProt A5PN28); assay: as above
[3] = target: dOtolC1q D432A (zebrafish (Danio rerio)) (UniProt A5PN28); assay: AUC; sedimentation velocity, c(s) analysis in SEDFIT; 10 mM CaCl2; 10 mM HEPES pH 7.0, 500 mM NaCl, 5% glycerol; 20 °C, 50,000 rpm; protein about 0.1, 0.25 and 0.5 mg/ml; self-association of the gC1q domain into trimers; both purified
[4] = target: dOtolC1q D432A (zebrafish (Danio rerio)) (UniProt A5PN28); assay: AUC; sedimentation velocity, c(s) analysis in SEDFIT; 1 mM EDTA (no Ca2+); 10 mM HEPES pH 7.0, 500 mM NaCl, 5% glycerol; 20 °C, 50,000 rpm; protein about 0.1, 0.25 and 0.5 mg/ml; self-association of the gC1q domain into trimers; both purified
[5] = target: hOtolC1q D425A (human) (UniProt A6NHN0); assay: AUC; sedimentation velocity, c(s) analysis in SEDFIT; 10 mM CaCl2; 10 mM HEPES pH 7.0, 500 mM NaCl, 5% glycerol; 20 °C, 50,000 rpm; protein about 0.1, 0.25 and 0.5 mg/ml; self-association of the gC1q domain into trimers; both purified
[6] = target: hOtolC1q E417A (human) (UniProt A6NHN0); assay: as above
[7] = target: hOtolC1q E417A D425A (human) (UniProt A6NHN0); assay: as above
[8] = target: hOtolC1q E470A (human) (UniProt A6NHN0); assay: AUC; sedimentation velocity, c(s) analysis in SEDFIT; 1 mM EDTA (no Ca2+); 10 mM HEPES pH 7.0, 500 mM NaCl, 5% glycerol; 20 °C, 50,000 rpm; protein about 0.1, 0.25 and 0.5 mg/ml; self-association of the gC1q domain into trimers; both purified

In the case of “C1q-like domain of otolin-1 from human (from UniProt A6NHN0 338-473) (domain or fragment)”, the binding [1] is reported as “binds weakly”.

For “C1q-like domain of otolin-1 from zebrafish (from UniProt A5PN28 351-488) (domain or fragment)”, the binding [2] was “binds weakly”.

With “dOtolC1q D432A (from UniProt A5PN28 351-488) (domain or fragment)” the binding [3] was “binds weakly” and the binding [4] was “binds weakly”.

“hOtolC1q D425A (from UniProt A6NHN0 338-473) (domain or fragment)” was tested, and the binding [5] was “binds”.

In the case of “hOtolC1q E417A (from UniProt A6NHN0 338-473) (domain or fragment)”, the binding [6] is reported as “binds”.

In the case of “hOtolC1q E417A D425A (from UniProt A6NHN0 338-473) (domain or fragment)”, the binding [7] is reported as “binds”.

In the case of “hOtolC1q E470A (from UniProt A6NHN0 338-473) (domain or fragment)”, the binding [8] is reported as “binds weakly”.
